Experimental findings from article PMC7290235, “Regulation of Exopolysaccharide Production by ProE, a Cyclic-Di-GMP Phosphodiesterase in Pseudomonas aeruginosa PAO1” (Frontiers in Microbiology, 2020) are described below.

Results are given in words; binding and its absence hold for the method and conditions named. Some binding calls cover weakened binding; strength is not graded here.

This assay addresses ProE (PA5295), GGDEF-EAL c-di-GMP phosphodiesterase of Pseudomonas aeruginosa PAO1 (Pseudomonas aeruginosa PAO1) (UniProt Q9HTQ9). Put plainly: two-hybrid; BacterioMatch II bacterial two-hybrid (Stratagene); pBT-proE (bait) and pTRG-proE (prey) co-transformed into XL1-Blue MRF' Kan; growth on M9+ His-deficient medium with 5 mM 3-AT, 24-72 h, 30°C; positive colonies re-streaked with 5 mM 3-AT and 12.5 mg/ml streptomycin.

B1: ProE (PA5295), GGDEF-EAL c-di-GMP phosphodiesterase of Pseudomonas aeruginosa PAO1 (enzyme, UniProt Q9HTQ9 1-558)
chain: MSAPAEPLRLLLLADTPDWAPLLGERLRALGPAFSLSIVTTWEGAATLFAAEPRGLLLATPACLPLGTPCPWPVILLLQQEPAQAPVGVVDWLAAEQLSEDSLRRCLRYARERLGLQATLQLLAEQDPLTGIANRQGFQTLLAARLSEFDGRGLVLGHLDLDNFRHVNDSLGHQGGDRLILQVVNRLRGFMENGDSLARLGSDEFALLLDTRRDPQRAERVAERIVECLGEPYWIDGESLLLGCSLGLAHARADEGADPLMWHAHIAMQQAKSRQGCTFHVFDERINRGVRSLADLEAELRRALRRDELELHYQPRLCLDSGRIVGLEALVRWRHGERGLLTPSEFVPLAEESGLIVPLGYWVIARALRDMQWLNGRGLEPLHMAVNLSFRQFQDSQLLPTLQRLIEEHGVDARWLEFELTETAVMRRSDQVLQTMQALGQLGVRFSLDDFGTGFSSFVHLNSLPITLLKIDRSFVGGMDQRAENFQLVRAMINLAHNLNLEVVAEGVETLRQQEQLRDFGCDQVQGYWISPPLPLAELARFLGIGERSAHRGQPLGN
On to B1, for which the binding result was “binds”.
